Results on 15 targets are retold here after the supplement of paper PMC6411743.

By UniProt entry, the sequences of proteins in these tests, tags left out. Where a name states a change or a piece, a line headed by the entry shows the natural chain unless it says otherwise.
UniProt Q96RG2: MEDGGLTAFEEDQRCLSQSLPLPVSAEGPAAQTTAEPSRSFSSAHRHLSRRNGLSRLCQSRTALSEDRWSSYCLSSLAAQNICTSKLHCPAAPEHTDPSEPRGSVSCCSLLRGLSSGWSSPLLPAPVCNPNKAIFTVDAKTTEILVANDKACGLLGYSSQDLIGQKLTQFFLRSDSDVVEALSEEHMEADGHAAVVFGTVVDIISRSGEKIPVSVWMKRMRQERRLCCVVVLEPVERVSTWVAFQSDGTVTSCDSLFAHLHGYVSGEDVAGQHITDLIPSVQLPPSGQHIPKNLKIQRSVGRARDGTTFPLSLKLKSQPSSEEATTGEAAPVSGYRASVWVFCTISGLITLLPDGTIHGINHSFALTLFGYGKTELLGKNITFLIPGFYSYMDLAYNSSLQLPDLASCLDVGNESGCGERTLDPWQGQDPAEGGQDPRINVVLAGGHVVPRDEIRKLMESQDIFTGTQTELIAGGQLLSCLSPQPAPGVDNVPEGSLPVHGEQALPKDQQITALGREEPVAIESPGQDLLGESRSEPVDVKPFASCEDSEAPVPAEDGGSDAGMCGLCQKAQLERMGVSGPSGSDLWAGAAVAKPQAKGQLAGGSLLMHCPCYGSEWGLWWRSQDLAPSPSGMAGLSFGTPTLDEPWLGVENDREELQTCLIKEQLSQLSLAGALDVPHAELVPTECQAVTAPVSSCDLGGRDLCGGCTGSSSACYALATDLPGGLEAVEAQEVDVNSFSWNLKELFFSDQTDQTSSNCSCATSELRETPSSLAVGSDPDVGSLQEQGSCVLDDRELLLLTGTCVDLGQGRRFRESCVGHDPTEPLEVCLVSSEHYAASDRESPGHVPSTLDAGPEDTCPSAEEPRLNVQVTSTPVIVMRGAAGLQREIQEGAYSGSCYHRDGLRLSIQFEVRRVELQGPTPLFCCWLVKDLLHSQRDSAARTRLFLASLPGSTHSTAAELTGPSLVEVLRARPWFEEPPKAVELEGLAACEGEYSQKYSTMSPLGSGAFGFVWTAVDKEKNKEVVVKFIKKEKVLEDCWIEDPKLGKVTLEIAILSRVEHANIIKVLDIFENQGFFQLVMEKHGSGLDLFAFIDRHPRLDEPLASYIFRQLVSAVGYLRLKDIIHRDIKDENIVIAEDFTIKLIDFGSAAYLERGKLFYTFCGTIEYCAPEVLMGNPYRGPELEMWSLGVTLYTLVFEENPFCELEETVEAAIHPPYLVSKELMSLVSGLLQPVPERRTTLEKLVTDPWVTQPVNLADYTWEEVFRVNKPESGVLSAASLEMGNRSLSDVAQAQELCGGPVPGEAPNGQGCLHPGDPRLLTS
UniProt Q9BXB4: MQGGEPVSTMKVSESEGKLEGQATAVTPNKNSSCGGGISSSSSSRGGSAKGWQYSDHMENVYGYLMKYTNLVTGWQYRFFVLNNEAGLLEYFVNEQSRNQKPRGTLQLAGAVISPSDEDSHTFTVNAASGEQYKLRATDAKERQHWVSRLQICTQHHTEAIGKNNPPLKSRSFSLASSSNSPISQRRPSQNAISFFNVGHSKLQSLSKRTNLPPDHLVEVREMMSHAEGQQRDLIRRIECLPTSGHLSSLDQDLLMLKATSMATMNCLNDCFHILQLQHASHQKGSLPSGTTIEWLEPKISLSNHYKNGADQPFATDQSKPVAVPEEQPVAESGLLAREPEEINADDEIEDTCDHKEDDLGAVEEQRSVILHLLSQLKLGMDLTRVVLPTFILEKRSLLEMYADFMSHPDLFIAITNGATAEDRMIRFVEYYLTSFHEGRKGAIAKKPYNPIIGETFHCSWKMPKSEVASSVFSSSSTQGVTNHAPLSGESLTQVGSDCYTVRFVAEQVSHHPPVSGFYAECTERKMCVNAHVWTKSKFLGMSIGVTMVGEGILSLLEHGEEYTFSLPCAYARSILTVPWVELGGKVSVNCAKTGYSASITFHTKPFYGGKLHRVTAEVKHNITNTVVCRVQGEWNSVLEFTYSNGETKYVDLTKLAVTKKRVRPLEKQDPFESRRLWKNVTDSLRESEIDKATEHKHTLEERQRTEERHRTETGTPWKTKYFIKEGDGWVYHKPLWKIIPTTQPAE
UniProt Q9BVA0, whole entry: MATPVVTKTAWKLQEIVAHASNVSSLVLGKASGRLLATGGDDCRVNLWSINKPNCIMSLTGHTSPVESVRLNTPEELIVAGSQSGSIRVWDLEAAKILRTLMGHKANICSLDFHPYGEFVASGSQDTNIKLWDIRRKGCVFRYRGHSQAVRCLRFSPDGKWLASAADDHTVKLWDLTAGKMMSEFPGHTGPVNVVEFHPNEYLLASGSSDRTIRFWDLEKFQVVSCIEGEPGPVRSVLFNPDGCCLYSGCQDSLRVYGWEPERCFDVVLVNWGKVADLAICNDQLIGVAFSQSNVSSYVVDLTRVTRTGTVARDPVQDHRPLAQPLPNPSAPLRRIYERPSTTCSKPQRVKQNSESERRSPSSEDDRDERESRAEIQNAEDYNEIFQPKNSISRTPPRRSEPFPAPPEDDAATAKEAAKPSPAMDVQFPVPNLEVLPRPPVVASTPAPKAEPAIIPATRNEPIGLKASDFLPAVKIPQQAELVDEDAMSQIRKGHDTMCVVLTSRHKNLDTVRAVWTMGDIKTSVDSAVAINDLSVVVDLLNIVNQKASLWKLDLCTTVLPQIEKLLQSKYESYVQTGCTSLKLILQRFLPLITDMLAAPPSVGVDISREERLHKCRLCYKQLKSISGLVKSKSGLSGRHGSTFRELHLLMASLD
UniProt Q99661: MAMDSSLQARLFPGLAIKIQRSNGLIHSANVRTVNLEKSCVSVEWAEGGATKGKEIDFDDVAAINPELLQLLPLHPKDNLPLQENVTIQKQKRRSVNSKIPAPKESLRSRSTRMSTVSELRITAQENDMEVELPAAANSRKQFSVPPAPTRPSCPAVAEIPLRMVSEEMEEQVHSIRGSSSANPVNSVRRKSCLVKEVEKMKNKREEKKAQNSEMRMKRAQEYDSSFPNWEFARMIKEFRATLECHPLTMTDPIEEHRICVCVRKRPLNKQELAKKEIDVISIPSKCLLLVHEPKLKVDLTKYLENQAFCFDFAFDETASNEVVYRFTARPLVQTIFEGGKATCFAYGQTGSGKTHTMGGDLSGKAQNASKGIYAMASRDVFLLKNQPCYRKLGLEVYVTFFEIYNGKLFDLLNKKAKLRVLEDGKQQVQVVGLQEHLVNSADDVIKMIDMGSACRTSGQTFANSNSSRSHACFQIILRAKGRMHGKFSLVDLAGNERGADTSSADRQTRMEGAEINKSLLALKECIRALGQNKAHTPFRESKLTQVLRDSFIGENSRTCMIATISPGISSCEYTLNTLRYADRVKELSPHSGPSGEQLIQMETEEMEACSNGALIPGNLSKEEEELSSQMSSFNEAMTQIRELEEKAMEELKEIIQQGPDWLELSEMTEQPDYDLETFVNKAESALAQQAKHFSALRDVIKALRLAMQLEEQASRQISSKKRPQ
UniProt Q9BRG1: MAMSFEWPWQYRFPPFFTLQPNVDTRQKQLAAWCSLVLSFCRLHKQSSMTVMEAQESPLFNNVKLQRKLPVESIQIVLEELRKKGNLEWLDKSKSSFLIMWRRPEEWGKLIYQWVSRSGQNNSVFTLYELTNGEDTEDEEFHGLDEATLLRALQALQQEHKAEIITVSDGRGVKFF
UniProt Q9BSJ2, whole entry: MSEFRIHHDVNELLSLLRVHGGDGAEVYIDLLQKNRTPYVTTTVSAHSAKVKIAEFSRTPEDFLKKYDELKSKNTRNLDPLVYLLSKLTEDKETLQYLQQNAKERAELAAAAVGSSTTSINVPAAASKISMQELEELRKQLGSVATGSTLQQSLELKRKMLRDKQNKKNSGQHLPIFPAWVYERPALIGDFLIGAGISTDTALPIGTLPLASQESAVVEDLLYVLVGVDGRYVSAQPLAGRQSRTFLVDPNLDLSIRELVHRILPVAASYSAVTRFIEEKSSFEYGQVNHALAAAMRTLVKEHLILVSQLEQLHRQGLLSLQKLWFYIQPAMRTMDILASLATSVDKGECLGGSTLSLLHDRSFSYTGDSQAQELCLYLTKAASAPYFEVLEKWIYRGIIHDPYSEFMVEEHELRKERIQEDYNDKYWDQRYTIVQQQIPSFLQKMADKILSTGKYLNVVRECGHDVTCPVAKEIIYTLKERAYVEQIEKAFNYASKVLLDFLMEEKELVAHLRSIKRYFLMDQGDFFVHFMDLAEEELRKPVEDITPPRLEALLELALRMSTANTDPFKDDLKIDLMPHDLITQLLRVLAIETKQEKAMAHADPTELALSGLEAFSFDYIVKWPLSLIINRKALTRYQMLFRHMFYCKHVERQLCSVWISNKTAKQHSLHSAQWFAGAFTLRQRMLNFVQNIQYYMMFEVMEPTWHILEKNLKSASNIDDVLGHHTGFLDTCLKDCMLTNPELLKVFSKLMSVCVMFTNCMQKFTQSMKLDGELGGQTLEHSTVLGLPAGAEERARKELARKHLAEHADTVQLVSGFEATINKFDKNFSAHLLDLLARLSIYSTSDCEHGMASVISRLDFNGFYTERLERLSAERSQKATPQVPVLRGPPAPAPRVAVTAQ
UniProt Q9BUK6: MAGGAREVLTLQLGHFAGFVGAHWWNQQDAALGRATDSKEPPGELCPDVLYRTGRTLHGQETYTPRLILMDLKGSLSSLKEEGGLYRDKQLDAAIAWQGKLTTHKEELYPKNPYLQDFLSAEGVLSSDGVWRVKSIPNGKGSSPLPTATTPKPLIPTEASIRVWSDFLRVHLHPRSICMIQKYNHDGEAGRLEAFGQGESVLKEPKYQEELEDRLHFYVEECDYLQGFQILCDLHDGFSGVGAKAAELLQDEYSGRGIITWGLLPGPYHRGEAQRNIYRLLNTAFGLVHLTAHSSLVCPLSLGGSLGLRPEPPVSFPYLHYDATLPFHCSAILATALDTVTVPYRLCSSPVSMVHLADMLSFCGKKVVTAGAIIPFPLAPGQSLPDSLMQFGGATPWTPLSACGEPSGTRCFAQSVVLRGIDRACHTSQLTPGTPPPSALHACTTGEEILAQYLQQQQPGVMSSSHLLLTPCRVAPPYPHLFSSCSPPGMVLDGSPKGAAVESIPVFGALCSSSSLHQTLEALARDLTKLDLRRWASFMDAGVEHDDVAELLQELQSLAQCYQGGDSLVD
UniProt Q99961: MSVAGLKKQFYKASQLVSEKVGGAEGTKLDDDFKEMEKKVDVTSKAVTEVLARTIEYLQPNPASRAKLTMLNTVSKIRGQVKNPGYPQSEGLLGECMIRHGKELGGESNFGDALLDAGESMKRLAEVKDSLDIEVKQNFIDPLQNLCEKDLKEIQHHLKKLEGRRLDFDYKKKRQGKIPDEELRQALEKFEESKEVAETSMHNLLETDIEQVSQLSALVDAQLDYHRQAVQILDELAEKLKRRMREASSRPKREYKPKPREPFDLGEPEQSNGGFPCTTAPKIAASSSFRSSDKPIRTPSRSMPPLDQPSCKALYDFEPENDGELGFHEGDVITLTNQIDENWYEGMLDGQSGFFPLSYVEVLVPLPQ
UniProt Q9BR61: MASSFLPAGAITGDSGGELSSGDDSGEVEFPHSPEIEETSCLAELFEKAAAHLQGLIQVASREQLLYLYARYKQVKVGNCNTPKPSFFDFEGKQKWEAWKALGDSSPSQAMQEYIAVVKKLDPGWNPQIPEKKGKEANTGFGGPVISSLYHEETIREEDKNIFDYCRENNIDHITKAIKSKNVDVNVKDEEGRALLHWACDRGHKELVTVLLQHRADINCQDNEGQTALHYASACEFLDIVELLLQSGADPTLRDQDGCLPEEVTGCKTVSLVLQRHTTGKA
UniProt Q9BRP4: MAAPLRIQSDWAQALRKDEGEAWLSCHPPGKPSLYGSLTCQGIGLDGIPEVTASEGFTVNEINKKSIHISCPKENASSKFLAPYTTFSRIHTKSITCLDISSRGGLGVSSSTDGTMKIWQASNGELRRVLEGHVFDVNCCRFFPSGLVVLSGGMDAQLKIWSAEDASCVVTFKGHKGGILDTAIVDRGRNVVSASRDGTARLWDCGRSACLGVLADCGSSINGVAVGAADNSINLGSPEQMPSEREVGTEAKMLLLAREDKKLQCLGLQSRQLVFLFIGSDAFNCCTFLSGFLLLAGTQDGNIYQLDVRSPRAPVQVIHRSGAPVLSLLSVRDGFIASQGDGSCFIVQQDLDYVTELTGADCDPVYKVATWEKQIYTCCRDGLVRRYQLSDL
UniProt Q9BS26: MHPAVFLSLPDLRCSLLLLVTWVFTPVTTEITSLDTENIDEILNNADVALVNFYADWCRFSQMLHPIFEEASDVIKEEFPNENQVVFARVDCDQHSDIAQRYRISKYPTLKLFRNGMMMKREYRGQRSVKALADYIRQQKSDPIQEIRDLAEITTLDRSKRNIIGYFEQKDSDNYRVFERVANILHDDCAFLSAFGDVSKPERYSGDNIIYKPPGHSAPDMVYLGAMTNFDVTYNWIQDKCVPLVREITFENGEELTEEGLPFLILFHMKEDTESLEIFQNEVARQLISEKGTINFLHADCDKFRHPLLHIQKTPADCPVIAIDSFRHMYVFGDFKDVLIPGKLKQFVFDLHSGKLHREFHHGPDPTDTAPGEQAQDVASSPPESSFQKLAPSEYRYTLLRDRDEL

± gives the standard deviation of the averaged measurements. Only a part is listed here, and it is no random draw.

Compound in this assay: Nc1ncnc2c1ncn2[C@@H]1O[C@H](COP(=O)(O)OP(=O)(O)NP(=O)(O)O)[C@@H](O)[C@H]1O [adenylyl imidodiphosphate]
Briefly: NP40-soluble protein abundance relative to vehicle (solubility fold change) (ratio); higher = more soluble protein in presence of AMP-PNP. In short, it runs like this:
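Jurkat crude lysate prepared with a Dounce homogeniser was treated at eight concentrations spanning 0.1 to 10 mM, 10 min at room temperature then 3 min at 37 °C. Solubilisation with 0.8% NP40 and benzonase and ultracentrifugation preceded TMT labelling of the supernatant for LC-MS/MS. Fold change against the detergent-processed vehicle was determined per replicate from vsn-normalised intensities, across three independent experiments.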

With MRPS26 (UniProt Q9BYN8), the NP40-soluble protein abundance turned out to be 0.988 ± 0.091 (concentration: 1mM); 1.07 ± 0.079 (concentration: 2mM); 0.955 ± 0.051 (concentration: 4mM); 0.948 ± 0.077 (concentration: 6mM); 0.882 ± 0.071 (concentration: 8mM); 0.931 ± 0.064 (concentration: 10mM).

Take UniProt Q96RG2 and related entries: the NP40-soluble protein abundance runs as follows: (concentration: 1mM) 0.9919 ± 0.0087; (concentration: 2mM) 0.997 ± 0.048; (concentration: 4mM) 1.02 ± 0.011; (concentration: 6mM) 0.982 ± 0.021; (concentration: 8mM) 1 ± 0.026; (concentration: 10mM) 0.996 ± 0.024.

In the case of UniProt Q99728 and related entries, the NP40-soluble protein abundance by setting is: (concentration: 1mM) 1.04 ± 0.034; (concentration: 2mM) 1.04 ± 0.037; (concentration: 4mM) 1.04 ± 0.054; (concentration: 6mM) 1.05 ± 0.023; (concentration: 8mM) 1.05 ± 0.032; (concentration: 10mM) 1.1 ± 0.052.

Regarding OSBPL11 (UniProt Q9BXB4), the NP40-soluble protein abundance was found to be 1.02 ± 0.029 (concentration: 1mM); 1.04 ± 0.013 (concentration: 2mM); 1.04 ± 0.016 (concentration: 4mM); 0.959 ± 0.039 (concentration: 6mM); 0.951 ± 0.029 (concentration: 8mM); 0.981 ± 0.045 (concentration: 10mM).

For the target KATNB1 (UniProt Q9BVA0), the NP40-soluble protein abundance reads like this: (concentration: 1mM) 1.04 ± 0.031; (concentration: 2mM) 1.03 ± 0.035; (concentration: 4mM) 1.052 ± 0.01; (concentration: 6mM) 1.003 ± 0.0066; (concentration: 8mM) 1.01 ± 0.035; (concentration: 10mM) 1 ± 0.02.

KIF2C (UniProt Q99661): the NP40-soluble protein abundance reads like this: (concentration: 1mM) 1.01 ± 0.018; (concentration: 2mM) 1 ± 0.056; (concentration: 4mM) 1.001 ± 0.0041; (concentration: 6mM) 1.03 ± 0.025; (concentration: 8mM) 1.01 ± 0.011; (concentration: 10mM) 1.03 ± 0.03.

CENPO (UniProt Q9BU64): the NP40-soluble protein abundance was 1.03 ± 0.012 (concentration: 1mM); 1.03 ± 0.016 (concentration: 2mM); 1.02 ± 0.022 (concentration: 4mM); 1.02 ± 0.0093 (concentration: 6mM); 1.011 ± 0.0061 (concentration: 8mM); 1.04 ± 0.018 (concentration: 10mM).

With SPEN (UniProt Q96T58), the NP40-soluble protein abundance came to 1.09 ± 0.033 (concentration: 1mM); 1.18 ± 0.087 (concentration: 2mM); 1.18 ± 0.065 (concentration: 4mM); 1.21 ± 0.089 (concentration: 6mM); 1.21 ± 0.11 (concentration: 8mM); 1.3 ± 0.1 (concentration: 10mM).

Turning to UniProt Q9BRG1 and related entries, the NP40-soluble protein abundance (concentration: 1mM) was determined as 1.04 ± 0.028; the NP40-soluble protein abundance (concentration: 2mM) is 0.957 ± 0.094; the NP40-soluble protein abundance (concentration: 4mM) came to 1.02 ± 0.063; the NP40-soluble protein abundance (concentration: 6mM) is 0.931 ± 0.043; the NP40-soluble protein abundance (concentration: 8mM) was 0.982 ± 0.071; the NP40-soluble protein abundance (concentration: 10mM) was determined as 0.942 ± 0.099.

Turning to UniProt Q9BSJ2 and related entries, the NP40-soluble protein abundance is 0.993 ± 0.079 (concentration: 1mM); 0.955 ± 0.083 (concentration: 2mM); 1 ± 0.082 (concentration: 4mM); 0.988 ± 0.14 (concentration: 6mM); 0.982 ± 0.096 (concentration: 8mM); 0.993 ± 0.13 (concentration: 10mM).

Turning to UniProt Q9BUK6 and related entries, the NP40-soluble protein abundance (concentration: 1mM) worked out at 0.995 ± 0.046; the NP40-soluble protein abundance (concentration: 2mM) was determined as 0.959 ± 0.031; the NP40-soluble protein abundance (concentration: 4mM) amounted to 0.993 ± 0.038; the NP40-soluble protein abundance (concentration: 6mM) turned out to be 0.995 ± 0.038; the NP40-soluble protein abundance (concentration: 8mM) stood at 0.991 ± 0.025; the NP40-soluble protein abundance (concentration: 10mM) was found to be 0.996 ± 0.021.

As for SH3GL1 (UniProt Q99961), the NP40-soluble protein abundance (concentration: 1mM) came out at 1.01 ± 0.018; the NP40-soluble protein abundance (concentration: 2mM) is 1.05 ± 0.044; the NP40-soluble protein abundance (concentration: 4mM) came out at 0.995 ± 0.017; the NP40-soluble protein abundance (concentration: 6mM) stood at 0.987 ± 0.033; the NP40-soluble protein abundance (concentration: 8mM) was 0.961 ± 0.016; the NP40-soluble protein abundance (concentration: 10mM) was determined as 0.99 ± 0.013.

Regarding ACBD6 (UniProt Q9BR61), the NP40-soluble protein abundance reads like this: (concentration: 1mM) 1.02 ± 0.029; (concentration: 2mM) 1.07 ± 0.061; (concentration: 4mM) 1.03 ± 0.021; (concentration: 6mM) 0.995 ± 0.051; (concentration: 8mM) 0.975 ± 0.02; (concentration: 10mM) 0.99 ± 0.012.

In the case of UniProt Q9BRP4 and related entries, the NP40-soluble protein abundance (concentration: 1mM) was 0.936 ± 0.021; the NP40-soluble protein abundance (concentration: 2mM) came to 0.901 ± 0.084; the NP40-soluble protein abundance (concentration: 4mM) was 0.92 ± 0.039; the NP40-soluble protein abundance (concentration: 6mM) worked out at 0.921 ± 0.03; the NP40-soluble protein abundance (concentration: 8mM) turned out to be 0.925 ± 0.05; the NP40-soluble protein abundance (concentration: 10mM) turned out to be 0.909 ± 0.036.

Turning to UniProt Q9BS26, the NP40-soluble protein abundance by setting is: (concentration: 1mM) 1.048 ± 0.0098; (concentration: 2mM) 1.04 ± 0.06; (concentration: 4mM) 1.03 ± 0.033; (concentration: 6mM) 1 ± 0.023; (concentration: 8mM) 1.03 ± 0.022; (concentration: 10mM) 0.999 ± 0.02.
